Data from publication PMC10968571.
Results are given in words; binding and its absence hold for the method and conditions named. Binding seen in cells or lysates may run through a third protein. A result given as binding can be weak or reduced; the word gives no strength. Tags and fused reporters may be left off the sequences shown. Values belong to the molecule of their own block, whether it stands above or below them.

Experiments:
[1] = target: T1, Flag-tagged SMYD3 (UniProt Q9CWR2); experiment: co-IP; Flag-SMYD3 and GFP-WT-α-tubulin expressed in HEK293T cells; anti-Flag or anti-GFP antibodies coupled to protein A agarose beads; Western blot
T1 sequence: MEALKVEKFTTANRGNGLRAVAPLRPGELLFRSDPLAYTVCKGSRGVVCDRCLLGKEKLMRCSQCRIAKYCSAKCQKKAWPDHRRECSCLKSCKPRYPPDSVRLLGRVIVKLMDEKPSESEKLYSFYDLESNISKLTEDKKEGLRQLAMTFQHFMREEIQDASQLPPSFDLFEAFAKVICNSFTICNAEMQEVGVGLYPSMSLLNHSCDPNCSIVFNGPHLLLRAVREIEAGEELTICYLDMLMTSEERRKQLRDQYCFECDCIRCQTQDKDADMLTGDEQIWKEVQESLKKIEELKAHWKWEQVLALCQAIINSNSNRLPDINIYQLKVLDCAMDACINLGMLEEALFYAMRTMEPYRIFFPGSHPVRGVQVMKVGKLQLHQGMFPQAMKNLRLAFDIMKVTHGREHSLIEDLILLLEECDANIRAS

[2] = target: T2, GST-SMYD3 (mouse) (UniProt Q9CWR2); experiment: pull-down; purified GST-SMYD3 or its truncations on glutathione Sepharose beads, incubated with 1 mg whole-cell lysate from RCTE cells in cell lysis buffer overnight at 4 °C; blot with α-tubulin antibody; only the target purified
T2 sequence: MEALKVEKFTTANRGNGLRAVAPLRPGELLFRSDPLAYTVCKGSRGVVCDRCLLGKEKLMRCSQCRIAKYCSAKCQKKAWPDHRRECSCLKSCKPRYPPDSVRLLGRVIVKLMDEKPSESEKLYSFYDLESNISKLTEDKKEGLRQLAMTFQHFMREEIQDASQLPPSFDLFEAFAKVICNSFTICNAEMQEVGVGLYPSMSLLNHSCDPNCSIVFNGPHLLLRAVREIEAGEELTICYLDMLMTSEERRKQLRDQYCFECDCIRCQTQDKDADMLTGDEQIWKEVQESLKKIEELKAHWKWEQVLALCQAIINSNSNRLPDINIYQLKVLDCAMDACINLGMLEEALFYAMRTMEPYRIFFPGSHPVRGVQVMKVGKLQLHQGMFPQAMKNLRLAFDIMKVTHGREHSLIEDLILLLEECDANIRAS

[3] = target: GFP-tagged wild-type α-tubulin; experiment: co-IP; Flag-SMYD3 and GFP-WT-α-tubulin expressed in HEK293T cells; anti-Flag or anti-GFP antibodies coupled to protein A agarose beads; Western blot

binding [1]: binds
Molecule: GFP-tagged wild-type α-tubulin

binding [2]: binds
Molecule: α-tubulin (human (endogenous in RCTE))

binding [3]: binds
B1: Flag-tagged SMYD3 (enzyme, UniProt Q9CWR2 1-428)
chain: MEALKVEKFTTANRGNGLRAVAPLRPGELLFRSDPLAYTVCKGSRGVVCDRCLLGKEKLMRCSQCRIAKYCSAKCQKKAWPDHRRECSCLKSCKPRYPPDSVRLLGRVIVKLMDEKPSESEKLYSFYDLESNISKLTEDKKEGLRQLAMTFQHFMREEIQDASQLPPSFDLFEAFAKVICNSFTICNAEMQEVGVGLYPSMSLLNHSCDPNCSIVFNGPHLLLRAVREIEAGEELTICYLDMLMTSEERRKQLRDQYCFECDCIRCQTQDKDADMLTGDEQIWKEVQESLKKIEELKAHWKWEQVLALCQAIINSNSNRLPDINIYQLKVLDCAMDACINLGMLEEALFYAMRTMEPYRIFFPGSHPVRGVQVMKVGKLQLHQGMFPQAMKNLRLAFDIMKVTHGREHSLIEDLILLLEECDANIRAS
